No constants are given. Whether binding was seen depends on the method and setting. In cells and extracts the contact can be indirect. Some binding calls cover weakened binding; strength is not graded here.
Biological target: Flag-SQSTM1, Q13501
Assay: co-IP; cytoplasmic supernatant of transfected BT-549 cells in hypo-osmic buffer (25 mmol/L Tris pH 7.4, 85 mmol/L KCl) incubated with Flag antibody-conjugated agarose beads overnight at 4°C; Western blotting
Details: remark: other sources report otherwise

B1: cGAS (GMP-AMP synthase), Q8N884 1-522 (protein)
chain: MQPWHGKAMQRASEAGATAPKASARNARGAPMDPTESPAAPEAALPKAGKFGPARKSGSRQKKSAPDTQERPPVRATGARAKKAPQRAQDTQPSDATSAPGAEGLEPPAAREPALSRAGSCRQRGARCSTKPRPPPGPWDVPSPGLPVSAPILVRRDAAPGASKLRAVLEKLKLSRDDISTAAGMVKGVVDHLLLRLKCDSAFRGVGLLNTGSYYEHVKISAPNEFDVMFKLEVPRIQLEEYSNTRAYYFVKFKRNPKENPLSQFLEGEILSASKMLSKFRKIIKEEINDIKDTDVIMKRKRGGSPAVTLLISEKISVDITLALESKSSWPASTQEGLRIQNWLSAKVRKQLRLKPFYLVPKHAKEGNGFQEETWRLSFSHIEKEILNNHGKSKTCCENKEEKCCRKDCLKLMKYLLEQLKERFKDKKHLDKFSSYHVKTAFFHVCTQNPQDSQWDRKDLGLCFDNCVTYFLQCLRTEKLENYFIPEFNLFSSNLIDKRSKEFLTKQIEYERNNEFPVFDEF
- binding: binds

Reference: PMC8189927
